Laboratory results taken from publication PMC3534080.
No constants are given. Whether binding was seen depends on the method and setting. In cells and extracts the contact can be indirect. Some entries that bind do so weakly or less than the wild type.

Assays:
Test in all cases: co-IP; HEK293 cells transiently overexpressing pairs of CDCP1 variants; lysis in 1% Triton X-100 buffer; immunoprecipitation with the antibody Cub1 (does not bind amino-terminally truncated CDCP1); blot with antibodies against the intracellular or the intra- and extracellular domain
[1] = target: Cub domain containing protein 1 (CDCP1), wild type, full length (UniProt Q9H5V8)
CDCP1 (ΔK693–697) = CDCP1 (ΔK693–697) (UniProt Q9H5V8)
CDCP1 (1–708) = CDCP1 (1–708) (UniProt Q9H5V8)
CDCP1 (1–701) = CDCP1 (1–701) (UniProt Q9H5V8)
[2] = target: CDCP1 (1–690, then Val-Lys-Arg-Stop) (UniProt Q9H5V8)
CDCP1 (C689,690G) = CDCP1 (C689,690G) (UniProt Q9H5V8)

binding [1] | binding (CDCP1 (ΔK693–697)) | binding (CDCP1 (1–708)) | binding (CDCP1 (1–701)) | binding [2] | binding (CDCP1 (C689,690G)) | Molecule
binds | – | – | – | – | – | CDCP1 ΔNT370 (from UniProt Q9H5V8 370-836) (domain or fragment)
binds | binds | binds | binds | binds | binds | CDCP1 ΔNT660 (domain or fragment, UniProt Q9H5V8 660-836) TPRTVDLTVILIAAVGGGVLLLSALGLIICCVKKKKKKTNKGPAVGIYNDNINTEMPRQPKKFQKGRKDNDSHVYAVIEDTMVYGHLLQDSSGSFLQPEVDTYRPFQGTMGVCPPSPPTICSRAPTAKLATEEPPPRSPPESESEPYTFSHPNNGDVSSKDTDIPLLNTQEPMEPAE
